Assay results from the supplement of paper PMC3334620.
Over roughly 33,000 sequences, “E-score (-0.5 to 0.5)” has its median near -0.015; the highest 2% begin near 0.3. The list shows a part of the results.

Target: T1, Abf1 (UniProt P14164)
T1 sequence: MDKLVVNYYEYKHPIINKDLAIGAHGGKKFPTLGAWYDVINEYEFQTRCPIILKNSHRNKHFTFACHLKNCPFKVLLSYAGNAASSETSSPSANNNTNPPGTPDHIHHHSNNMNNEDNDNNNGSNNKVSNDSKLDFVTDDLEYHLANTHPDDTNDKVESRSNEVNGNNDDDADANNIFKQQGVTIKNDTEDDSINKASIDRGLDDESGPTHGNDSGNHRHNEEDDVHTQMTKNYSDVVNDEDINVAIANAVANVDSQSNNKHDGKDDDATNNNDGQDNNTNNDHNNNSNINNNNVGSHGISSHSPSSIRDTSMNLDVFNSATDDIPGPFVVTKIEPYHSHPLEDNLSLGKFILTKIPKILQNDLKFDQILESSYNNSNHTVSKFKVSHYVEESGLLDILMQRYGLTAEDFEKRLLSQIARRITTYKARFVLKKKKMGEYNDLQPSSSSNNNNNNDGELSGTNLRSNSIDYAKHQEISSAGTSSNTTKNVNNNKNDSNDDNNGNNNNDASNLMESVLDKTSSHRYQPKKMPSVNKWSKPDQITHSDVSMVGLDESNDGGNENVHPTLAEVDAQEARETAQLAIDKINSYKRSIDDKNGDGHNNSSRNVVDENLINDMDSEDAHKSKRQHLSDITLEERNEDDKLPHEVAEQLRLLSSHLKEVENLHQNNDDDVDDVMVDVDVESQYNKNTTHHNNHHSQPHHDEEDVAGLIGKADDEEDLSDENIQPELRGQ
Experiment: PBM E-score (8-mer binding enrichment) (E-score (-0.5 to 0.5)); higher = stronger / more preferred TF binding
Conditions: protein concentration: 200 nM; construct: GST-full length
Procedure, shortened: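 GST-tagged yeast TFs (full-length or DNA-binding domain) were made by PURExpress in vitro transcription/translation and applied at about 100-200 nM to universal all-10-mer Agilent arrays. The arrays were made double-stranded by primer extension, on fresh or once-stripped slides. Bound protein was detected with fluorescent anti-GST, and scans were normalised with masliner. Each ungapped eight-base word, pooled with its reverse complement, received an E-score (modified Wilcoxon-Mann-Whitney statistic) from the Universal PBM Analysis Suite.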

First: GACTAATC
Second: GTCCCAAC
The “PBM E-score” value of the first is higher: 0.137 for the first, 0.0207 for the second.

Compared with GTAGAGTA, GGTCACAA is higher in “PBM E-score” value: 0.035 for the first, 0.0662 for the second.

Compared with ATCCATAA, GATGCATC is higher in “PBM E-score” value: 0.0983 for the first, 0.113 for the second.

Compared with AGCATTCA, AAAGGCCC is higher in “PBM E-score” value: -0.146 for the first, 0.0407 for the second.

Going from ACATCAGA to AGTGATTC, the “PBM E-score” value rises from 0.0196 to 0.207.

Going from ACGGTAAT to AACTAATG, the “PBM E-score” value falls from 0.0479 to 0.0464.

Going from ATTCCTTA to ACCATTAA, the “PBM E-score” value rises from 0.0267 to 0.156.

Going from AACCCAGA to TACGTCAA, the “PBM E-score” value rises from -0.13 to 0.117.

Compared with CCTGAGCG, CACACATA is lower in “PBM E-score” value: -0.047 for the first, -0.133 for the second.

Going from CAGTACTC to AACGGTGT, the “PBM E-score” value rises from -0.238 to 0.125.

Compared with GCAGTGAA, CTGTGCAA is higher in “PBM E-score” value: -0.0423 for the first, 0.0274 for the second.

First: CCGTGACC
Second: GAAGGCTC
The “PBM E-score” value of the first is higher: 0.157 for the first, -0.153 for the second.

Compared with CTGACGCA, CCACCGTA is higher in “PBM E-score” value: -0.203 for the first, 0.341 for the second.

First: AGGCTCTC
Second: CCCTAGTC
The “PBM E-score” value of the first is lower: -0.287 for the first, -0.269 for the second.

Going from CAGCACGG to ACGAGTAG, the “PBM E-score” value rises from 0.147 to 0.198.

Compared with AACTTATA, ATCAGCGG is lower in “PBM E-score” value: 0.0716 for the first, -0.201 for the second.

First: CTAAGAAC
Second: TCTTCGAA
The “PBM E-score” value of the first is lower: -0.114 for the first, -0.00519 for the second.

Going from CACATGAA to ATAAGAAC, the “PBM E-score” value rises from -0.00507 to 0.244.

Going from ATACCAAT to AATTTGCC, the “PBM E-score” value falls from 0.12 to -0.136.

First: CTTCGACC
Second: TATTCTCA
The “PBM E-score” value of the first is lower: -0.0331 for the first, 0.00152 for the second.

Going from AAATACGG to GATTAGCC, the “PBM E-score” value falls from 0.314 to -0.0198.

Going from CAATGCCG to CTTATTGC, the “PBM E-score” value falls from -0.0313 to -0.138.

Compared with AAGTATGT, CAGGCGCA is lower in “PBM E-score” value: 0.0702 for the first, -0.201 for the second.

First: AGAACGTG
Second: AATAACAT
The “PBM E-score” value of the first is lower: 0.136 for the first, 0.21 for the second.

Going from AACTTCGA to CTCAGATA, the “PBM E-score” value rises from -0.0314 to 0.2.

First: TAGGGTCA
Second: ACATCGAC
The “PBM E-score” value of the first is higher: 0.0468 for the first, -0.0198 for the second.

Going from AATTTACT to CAACCTTG, the “PBM E-score” value falls from 0.151 to -0.0633.

First: CGGTGGGC
Second: AGCAGTGC
The “PBM E-score” value of the first is lower: -0.264 for the first, -0.18 for the second.

First: TAGGCGGA
Second: TTGCGCAA
The “PBM E-score” value of the first is lower: -0.0812 for the first, 0.119 for the second.

First: ATCCCACC
Second: CGCATTTA
The “PBM E-score” value of the first is lower: -0.258 for the first, 0.228 for the second.

First: CCCAGAGG
Second: AGACCGCC
The “PBM E-score” value of the first is lower: -0.481 for the first, -0.16 for the second.

First: CCCGGACG
Second: ATCACCAA
The “PBM E-score” value of the first is lower: 0.00493 for the first, 0.24 for the second.

Going from ATATCCCG to ATCCGAAG, the “PBM E-score” value falls from 0.191 to -0.109.

Compared with AGGCGCAA, TTCCGCAA is lower in “PBM E-score” value: 0.00332 for the first, -0.077 for the second.

Going from GGTTCCGA to GAACCCTC, the “PBM E-score” value falls from -0.0014 to -0.194.

First: CATAGTAC
Second: GTACCCAC
The “PBM E-score” value of the first is higher: 0.1 for the first, -0.2 for the second.

First: CGAACTAG
Second: CGTCTATC
The “PBM E-score” value of the first is lower: 0.00367 for the first, 0.0313 for the second.

First: CAGTTTCA
Second: CTTGTAGA
The “PBM E-score” value of the first is higher: -0.0826 for the first, -0.145 for the second.

Compared with GTAACATA, GTTTGCTA is lower in “PBM E-score” value: 0.0896 for the first, -0.0151 for the second.

Going from CCACTATC to AGGCACGC, the “PBM E-score” value rises from 0.0206 to 0.0267.

Going from TTAACGAA to GAACTTAA, the “PBM E-score” value falls from 0.207 to 0.043.

Compared with CTTCCGCC, ATCATTGA is higher in “PBM E-score” value: -0.12 for the first, 0.282 for the second.

Going from ATGAGAGC to GTATGACA, the “PBM E-score” value rises from 0.00671 to 0.176.

Going from ACATCCGT to ATGGCTGG, the “PBM E-score” value falls from 0.0663 to -0.191.

First: ATCAAGGC
Second: CCGGGGTC
The “PBM E-score” value of the first is higher: -0.111 for the first, -0.138 for the second.

Compared with GATCACCA, ACGCAACA is lower in “PBM E-score” value: 0.308 for the first, 0.286 for the second.

Compared with CACCAGCA, CTCAGCAC is higher in “PBM E-score” value: 0.0489 for the first, 0.074 for the second.

Compared with AAACGGCC, CCTGGAAA is lower in “PBM E-score” value: 0.0186 for the first, -0.0105 for the second.

First: CGGGTTGA
Second: CCTTCGCA
The “PBM E-score” value of the first is lower: -0.206 for the first, -0.0677 for the second.

First: TACGCGTA
Second: GTGGAGAA
The “PBM E-score” value of the first is lower: -0.0262 for the first, 0.0678 for the second.

Compared with GTGATGCA, GCTACCTA is lower in “PBM E-score” value: 0.185 for the first, -0.127 for the second.

First: ACTACGAA
Second: GTTCCCTA
The “PBM E-score” value of the first is higher: 0.205 for the first, -0.0194 for the second.

First: AACGTCCG
Second: GATCACTA
The “PBM E-score” value of the first is lower: 0.103 for the first, 0.389 for the second.

Going from CGATAATA to TAAATTTA, the “PBM E-score” value falls from 0.326 to 0.258.

Compared with TCTTGTCA, AGTCCGCA is lower in “PBM E-score” value: 0.213 for the first, -0.33 for the second.

Compared with CGTCCGTC, ACAAAAGA is higher in “PBM E-score” value: -0.0636 for the first, 0.202 for the second.

Going from CTTCGTCC to GAGCGGTA, the “PBM E-score” value falls from 0.0852 to -0.1.

Compared with CACGATGC, AACCATCT is lower in “PBM E-score” value: 0.208 for the first, -0.0763 for the second.

Going from AGTTTAGG to TAAAGCGA, the “PBM E-score” value rises from -0.146 to 0.121.

Going from ATGGGTAC to GCTGATAA, the “PBM E-score” value falls from 0.067 to 0.0596.

First: GGACTACA
Second: AATGCAGA
The “PBM E-score” value of the first is lower: -0.177 for the first, -0.00439 for the second.

Compared with CCCCTCGC, CGTTCGAA is higher in “PBM E-score” value: -0.201 for the first, 0.311 for the second.

Going from CATAGATC to CGGAAAAC, the “PBM E-score” value falls from 0.0272 to 0.00296.

Compared with AAACTACG, AACTAAAA is lower in “PBM E-score” value: 0.0358 for the first, -0.00124 for the second.

Compared with CACTCCCA, TGGTGTAA is higher in “PBM E-score” value: -0.0696 for the first, -0.037 for the second.

Going from ATTCGTCG to ATTACAAT, the “PBM E-score” value falls from 0.31 to 0.0631.

Compared with CGCATGAG, AACGTATA is higher in “PBM E-score” value: -0.162 for the first, 0.1 for the second.

Going from CGTGGCCA to AATGCGCC, the “PBM E-score” value rises from -0.0396 to -0.0187.

First: CCATTTTA
Second: GGAAGGCA
The “PBM E-score” value of the first is higher: 0.105 for the first, -0.268 for the second.

Compared with ATAGTAGC, ATTTCTCC is lower in “PBM E-score” value: 0.145 for the first, -0.0555 for the second.

First: AACTTTCT
Second: CGGATCGC
The “PBM E-score” value of the first is higher: 0.0402 for the first, 0.0254 for the second.

First: GGACGGCA
Second: GTGTGACA
The “PBM E-score” value of the first is higher: 0.163 for the first, 0.116 for the second.

First: ATCGAGTG
Second: ACTTGCCG
The “PBM E-score” value of the first is higher: 0.0393 for the first, 0.0368 for the second.

Going from GGAGCACC to AAGCTGAA, the “PBM E-score” value falls from -0.0207 to -0.105.

Compared with ATCAGGAC, AGGTTTCG is lower in “PBM E-score” value: 0.103 for the first, -0.199 for the second.

Going from CTGACAAC to AGTATGGC, the “PBM E-score” value falls from -0.0598 to -0.0832.

Compared with AAGGTGCC, ATCGCCGC is higher in “PBM E-score” value: -0.0626 for the first, -0.00435 for the second.

First: GTCCGCGA
Second: CTGCAGCC
The “PBM E-score” value of the first is higher: 0.196 for the first, -0.22 for the second.

Going from CGACCACG to GAGAATGA, the “PBM E-score” value falls from 0.231 to 0.161.

Going from ACGGCTTC to GGCCTCCA, the “PBM E-score” value falls from -0.0541 to -0.108.

Compared with GTTGATAA, ATACAAAT is lower in “PBM E-score” value: 0.199 for the first, 0.0807 for the second.

Compared with CGATGAAG, AAGCATCG is higher in “PBM E-score” value: 0.0345 for the first, 0.266 for the second.

First: ACCGATCT
Second: ATCTTCCG
The “PBM E-score” value of the first is lower: -0.344 for the first, 0.162 for the second.

Going from ACTGTTGG to ATTTCTTA, the “PBM E-score” value rises from -0.142 to 0.0563.

Compared with GCCCCCGA, AGACGAAT is higher in “PBM E-score” value: -0.346 for the first, 0.288 for the second.

Compared with TAATAGCA, ATTTAGTG is higher in “PBM E-score” value: -0.122 for the first, 0.166 for the second.
